These results are taken from PMC5807549.

By UniProt entry, the sequences of proteins in these tests, tags left out. Residues count along the entry.
UniProt Q9Y3D2, residues 21-182: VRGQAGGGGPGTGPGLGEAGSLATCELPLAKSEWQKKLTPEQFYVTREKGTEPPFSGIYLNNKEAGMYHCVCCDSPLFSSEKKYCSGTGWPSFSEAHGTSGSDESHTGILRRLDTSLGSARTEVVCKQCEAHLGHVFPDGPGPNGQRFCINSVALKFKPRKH

This test addresses T1, His-hGrpEL1, not treated with H2O2 (human) (UniProt Q9HAV7).
T1 sequence: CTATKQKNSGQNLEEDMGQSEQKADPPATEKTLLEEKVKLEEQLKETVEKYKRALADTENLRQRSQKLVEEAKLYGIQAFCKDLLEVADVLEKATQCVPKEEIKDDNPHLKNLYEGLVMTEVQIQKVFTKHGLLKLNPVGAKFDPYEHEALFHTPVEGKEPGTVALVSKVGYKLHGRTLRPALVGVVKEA
In words: pull-down; in vitro Ni-NTA pull-down: 10 ug purified His-tagged bait (His-hGrpEL1 or His-Mrp6), pre-treated without or with H2O2 (increasing concentrations, 2 hrs), bound to Ni-NTA beads; 100 ug mitochondrial lysate (or cytosol lysate for Flag-Mxr1) of yeast expressing the Flag-Msr passed through; 3 washes with 10 mM imidazole buffer; immunoblot with Flag, GrpEL1 and His antibodies; only the target purified. (Immunoblotting shows a protein as a band on a membrane.)

No constants are given. Whether binding was seen depends on the method and setting. In cells and extracts the contact can be indirect. Some entries that bind do so weakly or less than the wild type. Tags and fused reporters may be left off the sequences shown.

Regarding “Flag-MsrB2 (human methionine-R-sulfoxide reductase B2) (from UniProt Q9Y3D2 21-182) (enzyme)”, the binding entry was “binds weakly”.

B1: Flag-yMxr1 (yeast cytosolic methionine sulfoxide reductase 1) (enzyme, UniProt P40029 1-184)
chain: MSSLISKTIKYDPAKDKLITLACGCFWGTEHMYRKYLNDRIVDCKVGYANGEESKKDSPSSVSYKRVCGGDTDFAEVLQVSYNPKVITLRELTDFFFRIHDPTTSNSQGPDKGTQYRSGLFAHSDADLKELAKIKEEWQPKWGNKIATVIEPIKNFYDAEEYHQLYLDKNPQGYACPTHYLREM
B1: the binding entry is on record as “no binding”.

B2: Flag-yMxr2 (yeast mitochondrial methionine sulfoxide reductase 2) (enzyme, UniProt P25566 1-168)
chain: MNKWSRLYVITVRRTFPGRRNIVLTQYWNKSKKMSDESNDVKWNDALTPLQLMVLRDKATERPNTGAYLHTNESGVYHCANCDRPLYSSKAKFDARCGWPAFYEEVSPGAITYHRDNSLMPARVEICCARCGGHLGHVFEGEGWKQLLNLPKDTRHCVNSASLNLKKD
Take B2: the binding entry is on record as “binds weakly”.

B3: Flag-Su9-MsrA (human methionine-S-sulfoxide reductase A with Su9 MTS) (enzyme, UniProt Q9UJ68 67-235)
chain: MAVFGMGCFWGAERKFWVLKGVYSTQVGFAGGYTSNPTYKEVCSEKTGHAEVVRVVYQPEHMSFEELLKVFWENHDPTQGMRQGNDHGTQYRSAIYPTSAKQMEAALSSKENYQKVLSEHGFGPITTDIREGQTFYYAEDYHQQYLSKNPNGYCGLGGTGVSCPVGIKK
Take B3: the binding entry is “no binding”.
